Experimental findings from PubChem BioAssay AID493014 (National Center for Advancing Translational Sciences (NCATS), 2011) are described below.

Structures are written as SMILES. The list shows a part of the results. The main result of the screen is listed elsewhere. These columns were measured beside it and carry no call. Compounds called inactive in the main read-out are mostly missing here. Potencies come from curve fits of mixed quality, noted in brackets.

The experiment can be described thus: qHTS Assay to Find Inhibitors of Chronic Active B-Cell Receptor Signaling. The conditions noted are these: ABC-DLBCL IkBa-CBG/CBR reporter, luminescence ratio (green luciferase fused to IkBa over red control in TMD8 lymphoma cells), 4 h. An outline of the steps: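 Cell line TMD8 (human ABC DLBCL), stably expressing tet-inducible CBG68-IkBa fusion and CBR; IMDM/0.5% FBS; cpd up to 46 uM; dox induction, 4 h, 37C/5% CO2; dual luminescence; green/red ratio; MG132 control.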
In general terms: In qHTS, concentration-response curves come from the screen itself.

Setting [1] is: measured here: CBR red luminescence, cell number.
Where [2] appears, read: measured here: IkBa-CBG green luminescence.

As usually defined, the AC50 is the concentration at which the activity in the assay is half-maximal.

Regarding `Cc1ccccc1NC(=S)Nc1ccc2cn[nH]c2c1`, the half-maximal activity concentration (AC50) under setting [1] was 8.91 µM [falling, partial curve].

With `COc1ccc(NC(=O)Nc2nc3ccccc3s2)cc1`, the AC50 under setting [1] was 10 µM [falling, single point]. Take `Cc1c(Cl)cccc1NC(=O)CSc1nc2ncc(Cl)cc2[nH]1`: the AC50 under setting [1] is 2.82 µM [falling, single point]. For `CCc1ccc(-c2nc(CN3CCC(C(=O)NCCc4ccc(OC)c(OC)c4)CC3)c(C)o2)cc1`, under setting [1], the AC50 was 1.12 µM [rising, full curve]. As to `NNC(=O)c1ccc(Cn2cccn2)o1`, the AC50 under setting [1] is 0.562 µM [falling, full curve].

Consider `Cc1ccc(CN2CCCCC2C(=O)Nc2ccc(Oc3cccnc3)cc2)o1` (stereo unspecified), for which the AC50 under setting [1] was 31.6 µM [rising, single point] and the AC50 under setting [2] is 28.2 µM [falling, single point].

`Cn1c(CNC(=O)c2ccc(F)cc2)nc2ccccc21`: the AC50 under setting [1] is 23.1 µM [falling, single point].

In the case of `CCc1nc2ccccc2n1Cc1ccc(OC)c(OC)c1`, the AC50 under setting [1] was 2.59 µM [rising, full curve, poor fit].

As to `N/C(Cc1ccc(Cl)cc1)=N\OC(=O)C1CCCCC1`, the AC50 under setting [1] is 2.31 µM [rising, full curve]. `CCOC(=O)c1nnn(CC(=O)Nc2cc(Cl)ccc2C)c1C(=O)OCC`: under setting [1], the AC50 was 7.31 µM [rising, partial curve]. With `COc1ccc(OC)c(Nc2nc(N)nc(-c3cc4ccccc4o3)n2)c1`, the AC50 under setting [1] was 0.231 µM [falling, full curve, poor fit]. On to `CCN1CCSc2ccc(C(=O)NCc3ccccc3F)cc21`, for which the AC50 under setting [1] is 0.112 µM [falling, full curve, poor fit].

Regarding `CC(=O)NN1C(=O)/C(=C/c2ccc(C(C)C)cc2)SC1=S`, under setting [1], the AC50 was 20.6 µM [rising, partial curve, poor fit].

On to `CC1=C(C)CC(C(=O)c2ccc(C)cc2)C(C(=O)O)C1` (stereo unspecified), for which the AC50 under setting [1] was 2.91 µM [rising, single point]. On to `O=C(c1ccc(N2CCN(C(=O)c3ccccc3)CC2)cc1)c1cccc(F)c1`, for which the AC50 under setting [1] was 17.8 µM [rising, partial curve, poor fit]. On the same count and under the same terms, as for `Cc1ccc(/C=C/C(=O)NCCc2ccccc2)o1`, the figure is 11.2 µM [falling, partial curve].

Regarding `CCCCCCCNC(=O)C1(CC2CC(c3ccc(Cl)cc3)=NO2)CCN(C(=O)CCCCCBr)CC1` (stereo unspecified), the AC50 under setting [1] was 35.5 µM [falling, single point]. Consider `Cc1cc(OCCCC(=O)N2CCCCC2)cc(C)c1Cl`, for which the AC50 under setting [1] is 2.91 µM [rising, single point].

Consider `C(=N\Nc1nc(N2CCCCCC2)nc(N2CCCCCC2)n1)/c1ccccc1`, for which the AC50 under setting [1] was 35.5 µM [rising, single point]. Consider `COc1ccc(N2CCN(C(=O)CN(C)S(=O)(=O)c3cc(C)ccc3OC)CC2)cc1`, for which, under setting [1], the AC50 was 17.8 µM [rising, single point]. Take `Cc1cccc(NC(=O)Cn2c(O)c(N=NC(=O)c3ccncc3)c3ccccc32)c1`: the half-maximal activity concentration (AC50) under setting [1] was 2.51 µM [rising, full curve, poor fit].

Take `CCOC(=O)C1CCN(c2cc(=O)n(-c3ccccc3Cl)c(=O)[nH]2)CC1`: the AC50 under setting [1] is 20.6 µM [falling, single point]. In the case of `COc1ccc(S(=O)(=O)NCCc2cn3nc(C)c(C)nc3n2)cc1`, the AC50 under setting [1] was 3.55 µM [falling, partial curve, poor fit]. On the same count and under the same terms, as for `Cc1cccc(NC(=O)Nc2ccccc2)n1`, the figure is 17.8 µM [falling, single point]; as for `Cc1sc2nc(-c3cccs3)oc(=O)c2c1C`, 12.6 µM [falling, partial curve, poor fit]; as for `CC(=O)Nc1cccc(/C(C)=N/NC(=O)c2cccs2)c1`, 20.6 µM [falling, single point].

Regarding `CCCN(C(=O)CSc1n[nH]c(-c2ccc(OC)cc2)n1)c1c(N)n(Cc2ccccc2)c(=O)[nH]c1=O`, the AC50 under setting [1] is 7.31 µM [rising, partial curve, poor fit]. In the case of `COC(=O)Cc1[nH]n(-c2ccccc2)c(=O)c1C=Nc1ccc(C)cc1`, the AC50 under setting [1] is 0.447 µM [rising, partial curve, poor fit]. Still for that read-out and setting: as for `O=C1/C(=C/c2cccc(Cl)c2)SC(=S)N1CCC(=O)N1CCCCC1CCO` (stereo unspecified), the figure is 10 µM [falling, partial curve]; as for `Cc1ccc(-c2csc3ncnc(SCc4ccc(C(=O)O)cc4)c23)cc1`, 28.2 µM [rising, single point]; as for `Cc1cc(N2CC(C(=O)NCc3cccs3)CC2=O)ccc1C(C)C` (stereo unspecified), 3.26 µM [rising, partial curve, poor fit]. Turning to `FC(F)(F)c1cccc(-c2nc3nc(Cl)c(Cl)nc3[nH]2)c1`, under setting [1], the AC50 is 1.58 µM [falling, full curve]. In the case of `CC(=O)CSc1nc(C(F)(F)F)cc(=O)n1-c1ccccc1`, the AC50 under setting [1] is 20.6 µM [rising, single point].

Regarding `COc1ccc2nc(N3C(=O)C(O)=C(C(=O)c4ccco4)C3c3ccccc3OC)sc2c1` (stereo unspecified), the AC50 under setting [1] was 3.98 µM [falling, full curve, poor fit]. `COc1ccccc1-n1c(=O)c(C#N)c(-c2ccc([N+](=O)[O-])cc2)c2cc(C(=O)c3cc(F)ccc3O)cnc21`: under setting [1], the AC50 is 2.82 µM [falling, full curve].

For `CCCc1cc(=O)oc2cc(Oc3ncccn3)ccc12`, the concentration at half-maximal activity (AC50) under setting [1] is 1.3 µM [falling, full curve, poor fit]. As for `COc1ccc(CN(C(=O)c2ccco2)c2ccc(C)cc2)cc1OC`, the AC50 under setting [1] was 15.8 µM [falling, partial curve, poor fit]. For `COc1ccc(S(=O)(=O)N2CCCCC2)cc1NS(=O)(=O)c1ccccc1`, the AC50 under setting [1] is 7.31 µM [rising, partial curve, poor fit]. Take `Clc1ccc2nc(-c3ccc(Br)s3)cn2c1`: under setting [1], the concentration at half-maximal activity (AC50) was 16.4 µM [falling, single point]. Turning to `CCOc1ccc(N(CC(=O)Nc2cccc(Br)c2)S(C)(=O)=O)cc1`, the AC50 under setting [1] is 28.2 µM [falling, single point]. Still for that read-out and setting: as for `C=CCc1c(C)nc2cc(-c3ccc(C)cc3)[nH]n2c1=O`, the figure is 10 µM [falling, single point]. The same measure, in the same setting: as for `O=C(NCc1ccc2c(c1)OCO2)c1ccc(COc2cccc(Cl)c2)o1`, the figure is 10.3 µM [falling, partial curve]. As to `Cc1ccccc1-n1nc(C(=O)O)cc1-c1ccccc1`, under setting [1], the AC50 was 4.11 µM [rising, single point]. Still for that read-out and setting: for `Cc1ccc(SCc2cn3c(C)csc3n2)cc1` the value was 2.06 µM [rising, partial curve, poor fit]; for `O=C(CN1CCN(S(=O)(=O)c2ccc(F)cc2)CC1)Nc1ccc(F)cc1F`, 11.2 µM [falling, partial curve]. The same measure, in the same setting: for `C[C@@H]1CCCCCCCCC(=O)OCCN(C(=O)OC(C)(C)C)[C@H](C)CCCCCCCCC(=O)OCCN(C(=O)OC(C)(C)C)[C@H](C)CCCCCCCCC(=O)OCCN(C(=O)OC(C)(C)C)[C@H](C)CCCCCCCCC(=O)OCCN1C(=O)OC(C)(C)C` the value was 23.1 µM [rising, partial curve, poor fit]; for `COC(=O)Cc1cn(-c2ncc(C(F)(F)F)cc2Cl)c2ccccc12`, 29.1 µM [rising, partial curve, poor fit]. For the compound `Cc1ccc(CN=C(N)Nc2nc(C)cc(C)n2)cc1`, under setting [1], the AC50 was 10 µM [falling, partial curve, poor fit]. Regarding `CCCCNC(=O)c1cc2ccccc2s1`, the AC50 under setting [1] is 15.8 µM [falling, single point].

Regarding `CCn1c2ccccc2c2cc(NC(=O)c3cc(OC)c(OC)c(OC)c3)ccc21`, the AC50 under setting [1] is 0.501 µM [rising, full curve] and the AC50 under setting [2] is 0.501 µM [falling, full curve]. Take `CCOC(=O)CNc1c(-c2ccc(O)cc2)nc2ccc(Cl)cn12`: the AC50 under setting [1] was 16.4 µM [falling, partial curve]. In the case of `COc1ccc(-n2ncc3c(N4CCN(c5cccc(C)c5)C(C)C4)ncnc32)cc1` (stereo unspecified), the AC50 under setting [1] was 5.01 µM [falling, full curve, poor fit]. As for `Cc1ccc(NC(=O)c2ccc3nc[nH]c3c2)c(O)c1`, the AC50 under setting [1] was 22.4 µM [falling, single point]. As to `Cc1ccc(C(=O)N/N=C\c2cccn2C)cn1`, the AC50 under setting [1] was 22.4 µM [falling, single point]. `CCOC(=O)c1c(C)n(OC)c2ccc3c(no[n+]3[O-])c12`: under setting [1], the AC50 is 0.517 µM [falling, full curve, poor fit]. Turning to `CC1Sc2ccc(S(=O)(=O)N3CCN(c4ccccc4)CC3)cc2NC1=O` (stereo unspecified), the AC50 under setting [1] was 10 µM [falling, partial curve]. On the same count and under the same terms, for `CCOC(=O)c1cnc2c(c(C)nn2C)c1Oc1ccc(Cl)cc1` the value was 11.6 µM [falling, partial curve, poor fit]; for `COc1ccc(S(=O)(=O)N2CCCCCC2)cc1C(=O)N(C)Cc1ccco1`, 1.3 µM [rising, full curve, poor fit]; for `O=C(NCc1ccc(F)cc1)c1cccc2c1C(=O)c1ccc(N3CCC(Cc4ccccc4)CC3)cc1S2(=O)=O`, 9.2 µM [rising, partial curve, poor fit]. Take `CC(Oc1ccc(Br)cc1)c1nc2c3ccccc3nc(=S)n2[nH]1` (stereo unspecified): the concentration at half-maximal activity (AC50) is, setting by setting: under setting [1], 4.47 µM [rising, full curve, poor fit]; under setting [2], 0.631 µM [falling, partial curve, poor fit]. Regarding `CCN1CCN(S(=O)(=O)c2ccc3c4c(cccc24)C(=O)N3CC)CC1`, under setting [1], the AC50 was 29.1 µM [rising, single point].

For the compound `Cc1cccc(NC(=O)c2ccccc2NC(=O)c2ccccc2)n1`, the concentration at half-maximal activity (AC50) under setting [1] is 7.94 µM [falling, partial curve, poor fit]. On to `COC(=O)c1c(N2C(=O)CC(Sc3ccccc3C(=O)O)C2=O)sc(C)c1C` (stereo unspecified), for which, under setting [1], the concentration at half-maximal activity (AC50) is 2.51 µM [falling, full curve].
